Source: patent US20100092465A1, “TREATMENT OF GRAFT-VERSUS-HOST DISEASE” (priority 2006, published 2010)
At least one read-out could not be matched to a standard name with certainty.

Test: Pharmacokinetics of soluble receptors in female C57B1/6 mice
Format: in vivo, mouse
Conditions: IP, 100 μg
Experimental: Studies were performed to evaluate the pharmacokinetics of the mouse (IL-27RAm(mFc1)) and human (IL-27RA-Fc5) soluble receptors in female C57B1/6 mice.
Serum was generated from each sample and analyzed by a qualified enzyme-linked immunosorbant assay (ELISA). The resulting mean serum concentration versus time profiles were then subjected to noncompartmental pharmacokinetic analyses. The following pharmacokinetic parameters were calculated: C0 and Cmax (extrapolated concentration at time zero and maximum serum concentration, respectively), Tmax (time to achieve maximum concentration), t1/2 λz (terminal half-life), AUC0-t (area under the concentration versus time curve from time zero to the last measurable time point), AUCINF (area under the concentration versus time curve extrapolated to infinity), Cl or Cl/F (clearance or clearance divided by bioavailable fraction, respectively), VSS or VZ/F (steady state volume of distribution or volume of distribution divided by the bioavailable fraction, respectively), and F (bioavailable fraction).

B1: IL-27RAm(mFc1): fusion protein comprising the extracellular domain of mouse IL27RA and a wild type BALB/c mouse gamma2a constant region Fc tag (protein)
chain: TRPHGSPGPLQCYSVGPLGILNCSWEPLGDLETPPVLYHQSQKYHPNRVWEVKVPSKQSWVTIPREQFTMADKLLIWGTQKGRPLWSSVSVNLETQMKPDTPQIFSQVDISEEATLEATVQWAPPVWPPQKVLICQFRYKECQAETWTRLEPQLKTDGLTPVEMQNLEPGTCYQVSGRCQVENGYPWGEWSSPLSFQTPFLDPEDVWVSGTVCETSGKRAALLVWKDPRPCVQVTYTVWFGAGDITTTQEEVPCCKSPVPAWMEWAVVSPGNSTSWVPPTNLSLVCLAPESAPCDVGVSSADGSPGIKVTWKQGTRKPLEYVVDWAQDGDSLDKLNWTRLPPGNLSTLLPGEFKGGVPYRITVTAVYSGGLAAAPSVWGFREELVPLAGPAVWRLPDDPPGTPVVAWGEVPRHQLRGQATHYTFCIQSRGLSTVCRNVSSQTQTATLPNLHLGSFKLWVTVSTVAGQGPPGPNLSLHLPDNRIRWK
Vz/F: 7.33 mL
